# These are yes or no findings as the source states them, for the method shown. In cells and extracts the contact can be indirect. Some entries that bind do so weakly or less than the wild type.
# The chains behind the UniProt entries cited, without tags or fusion partners.
# UniProt P62820: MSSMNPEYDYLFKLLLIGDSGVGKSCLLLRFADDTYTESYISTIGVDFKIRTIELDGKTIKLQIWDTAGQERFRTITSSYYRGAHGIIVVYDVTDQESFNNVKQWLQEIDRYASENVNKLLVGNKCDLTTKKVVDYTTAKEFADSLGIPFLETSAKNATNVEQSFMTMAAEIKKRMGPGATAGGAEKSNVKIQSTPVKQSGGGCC
# UniProt P61019: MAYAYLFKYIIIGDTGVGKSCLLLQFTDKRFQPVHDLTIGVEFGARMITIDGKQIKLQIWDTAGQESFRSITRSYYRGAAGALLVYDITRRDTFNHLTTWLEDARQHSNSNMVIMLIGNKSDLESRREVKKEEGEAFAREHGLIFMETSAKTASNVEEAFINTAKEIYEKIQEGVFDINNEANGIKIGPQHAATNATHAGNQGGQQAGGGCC
# UniProt P30153: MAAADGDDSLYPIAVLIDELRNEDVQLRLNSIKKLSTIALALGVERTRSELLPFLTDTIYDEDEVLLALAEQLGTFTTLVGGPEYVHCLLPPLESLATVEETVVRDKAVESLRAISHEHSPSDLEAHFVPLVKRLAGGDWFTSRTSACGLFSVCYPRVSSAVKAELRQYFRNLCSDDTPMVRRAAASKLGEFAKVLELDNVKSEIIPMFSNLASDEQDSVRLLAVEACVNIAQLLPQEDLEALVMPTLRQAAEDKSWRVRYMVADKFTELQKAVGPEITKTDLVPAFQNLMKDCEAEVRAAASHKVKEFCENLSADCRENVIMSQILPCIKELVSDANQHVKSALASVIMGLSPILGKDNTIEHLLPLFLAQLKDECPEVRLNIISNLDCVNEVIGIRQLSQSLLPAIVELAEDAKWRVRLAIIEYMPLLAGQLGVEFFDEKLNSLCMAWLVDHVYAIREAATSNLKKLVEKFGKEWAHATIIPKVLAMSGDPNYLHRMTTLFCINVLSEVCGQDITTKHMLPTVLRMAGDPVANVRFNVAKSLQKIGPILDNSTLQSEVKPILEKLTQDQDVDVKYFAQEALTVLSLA
# Columns and labels:
# GST-RAB1A = GST-RAB1A (UniProt P62820); test: pull-down; beads with about 5 μg GST-Rab pre-loaded with 0.5 mM GTPγS or 1 mM GDP, 1 h at 4 °C with lysate of HeLa over-expressing PPP2R1A; 50 mM HEPES-KOH pH 7.2, 150 mM NaCl, 1 mM MgCl2, 1% Triton-X-100; anti-Flag blot; only the target purified
# GST-RAB2A = GST-RAB2A (UniProt P61019); test: as above
substance,measurement,setting,value
"PPP2R1A-Flag, wild type (from UniProt P30153 1-589)",binding,GST-RAB1A,binds
same,binding,GST-RAB2A,binds
